± gives the standard deviation of the averaged measurements. This is a selection; strong and weak results do not stand in their true shares.

Chains of the proteins cited; added tags and fusions are not shown. Lines headed by an entry give the natural chain unless they say otherwise; changes in a name come on top.
UniProt P0DPI2: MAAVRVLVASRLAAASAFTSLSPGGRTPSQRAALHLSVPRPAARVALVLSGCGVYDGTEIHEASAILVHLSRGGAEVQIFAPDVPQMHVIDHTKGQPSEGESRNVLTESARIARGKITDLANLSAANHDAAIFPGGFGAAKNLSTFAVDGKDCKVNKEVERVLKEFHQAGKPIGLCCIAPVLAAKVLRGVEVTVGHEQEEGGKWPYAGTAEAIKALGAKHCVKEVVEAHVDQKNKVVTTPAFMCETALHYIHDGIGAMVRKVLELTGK
UniProt P20645: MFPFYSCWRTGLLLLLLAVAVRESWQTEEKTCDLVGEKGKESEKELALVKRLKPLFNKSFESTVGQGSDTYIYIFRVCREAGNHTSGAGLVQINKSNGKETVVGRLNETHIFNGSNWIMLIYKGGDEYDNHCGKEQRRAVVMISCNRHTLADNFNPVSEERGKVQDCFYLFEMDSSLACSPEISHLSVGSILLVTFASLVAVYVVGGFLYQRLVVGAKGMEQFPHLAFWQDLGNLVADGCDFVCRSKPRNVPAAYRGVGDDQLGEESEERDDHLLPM
UniProt P17483: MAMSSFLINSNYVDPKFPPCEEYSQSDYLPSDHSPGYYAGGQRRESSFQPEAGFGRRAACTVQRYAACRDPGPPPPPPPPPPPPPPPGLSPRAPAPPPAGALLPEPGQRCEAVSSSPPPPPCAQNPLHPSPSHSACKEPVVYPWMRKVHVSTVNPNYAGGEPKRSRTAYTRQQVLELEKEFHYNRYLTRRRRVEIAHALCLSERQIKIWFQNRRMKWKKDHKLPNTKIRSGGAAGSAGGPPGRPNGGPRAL
UniProt P32780: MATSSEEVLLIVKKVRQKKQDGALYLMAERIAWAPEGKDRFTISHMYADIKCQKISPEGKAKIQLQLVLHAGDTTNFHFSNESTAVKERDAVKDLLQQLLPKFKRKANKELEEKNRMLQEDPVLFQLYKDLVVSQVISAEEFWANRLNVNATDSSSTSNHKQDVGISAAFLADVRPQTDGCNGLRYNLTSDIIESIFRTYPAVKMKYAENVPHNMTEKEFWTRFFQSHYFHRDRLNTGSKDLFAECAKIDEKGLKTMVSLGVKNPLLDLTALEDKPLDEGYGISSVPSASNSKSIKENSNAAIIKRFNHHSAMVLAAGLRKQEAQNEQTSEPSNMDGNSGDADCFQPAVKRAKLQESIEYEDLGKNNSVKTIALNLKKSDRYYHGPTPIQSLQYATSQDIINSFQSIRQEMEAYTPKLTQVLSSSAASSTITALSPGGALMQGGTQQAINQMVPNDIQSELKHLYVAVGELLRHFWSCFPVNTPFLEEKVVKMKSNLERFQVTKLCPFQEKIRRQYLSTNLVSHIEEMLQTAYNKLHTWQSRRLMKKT
UniProt P31749: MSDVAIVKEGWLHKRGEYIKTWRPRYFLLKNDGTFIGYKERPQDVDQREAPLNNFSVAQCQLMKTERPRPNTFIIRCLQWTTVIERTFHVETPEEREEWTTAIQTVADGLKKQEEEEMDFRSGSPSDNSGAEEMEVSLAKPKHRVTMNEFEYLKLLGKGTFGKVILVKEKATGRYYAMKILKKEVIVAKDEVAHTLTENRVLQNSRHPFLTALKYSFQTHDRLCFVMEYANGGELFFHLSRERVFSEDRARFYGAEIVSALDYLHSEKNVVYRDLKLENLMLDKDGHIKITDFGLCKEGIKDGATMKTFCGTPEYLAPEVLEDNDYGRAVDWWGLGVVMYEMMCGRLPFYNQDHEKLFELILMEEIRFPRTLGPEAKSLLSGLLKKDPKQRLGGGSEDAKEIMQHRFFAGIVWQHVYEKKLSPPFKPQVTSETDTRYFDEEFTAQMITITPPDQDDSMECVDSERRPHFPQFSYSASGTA
UniProt P17568, whole entry: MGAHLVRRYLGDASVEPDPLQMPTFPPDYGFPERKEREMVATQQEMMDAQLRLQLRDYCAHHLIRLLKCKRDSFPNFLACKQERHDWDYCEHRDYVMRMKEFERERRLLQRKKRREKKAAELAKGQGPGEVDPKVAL
UniProt P31150: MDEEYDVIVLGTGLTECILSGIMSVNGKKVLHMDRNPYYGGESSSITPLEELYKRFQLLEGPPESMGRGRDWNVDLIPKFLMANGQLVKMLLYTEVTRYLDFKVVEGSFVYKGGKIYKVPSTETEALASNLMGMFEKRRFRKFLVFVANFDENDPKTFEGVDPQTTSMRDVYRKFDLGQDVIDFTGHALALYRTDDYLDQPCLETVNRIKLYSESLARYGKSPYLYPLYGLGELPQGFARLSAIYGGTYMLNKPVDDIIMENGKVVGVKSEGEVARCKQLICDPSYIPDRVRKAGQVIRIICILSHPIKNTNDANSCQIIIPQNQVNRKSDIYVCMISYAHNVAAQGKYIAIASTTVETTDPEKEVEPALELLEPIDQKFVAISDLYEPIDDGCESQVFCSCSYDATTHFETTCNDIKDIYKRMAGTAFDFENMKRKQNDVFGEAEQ
UniProt P30419: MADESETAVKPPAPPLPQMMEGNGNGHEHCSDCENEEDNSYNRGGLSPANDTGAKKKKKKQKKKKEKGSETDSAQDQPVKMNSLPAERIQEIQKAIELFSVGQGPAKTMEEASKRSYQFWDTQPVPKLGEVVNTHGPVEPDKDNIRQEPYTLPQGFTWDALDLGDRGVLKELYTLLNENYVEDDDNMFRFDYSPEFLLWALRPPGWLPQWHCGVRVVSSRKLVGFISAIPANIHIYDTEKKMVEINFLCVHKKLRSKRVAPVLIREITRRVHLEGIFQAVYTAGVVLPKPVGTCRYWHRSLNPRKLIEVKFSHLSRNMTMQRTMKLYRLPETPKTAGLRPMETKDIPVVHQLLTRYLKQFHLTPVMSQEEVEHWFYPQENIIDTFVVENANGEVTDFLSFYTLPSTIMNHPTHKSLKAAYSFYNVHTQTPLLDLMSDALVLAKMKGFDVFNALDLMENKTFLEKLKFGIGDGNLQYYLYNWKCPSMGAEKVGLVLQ
UniProt P31321, whole entry: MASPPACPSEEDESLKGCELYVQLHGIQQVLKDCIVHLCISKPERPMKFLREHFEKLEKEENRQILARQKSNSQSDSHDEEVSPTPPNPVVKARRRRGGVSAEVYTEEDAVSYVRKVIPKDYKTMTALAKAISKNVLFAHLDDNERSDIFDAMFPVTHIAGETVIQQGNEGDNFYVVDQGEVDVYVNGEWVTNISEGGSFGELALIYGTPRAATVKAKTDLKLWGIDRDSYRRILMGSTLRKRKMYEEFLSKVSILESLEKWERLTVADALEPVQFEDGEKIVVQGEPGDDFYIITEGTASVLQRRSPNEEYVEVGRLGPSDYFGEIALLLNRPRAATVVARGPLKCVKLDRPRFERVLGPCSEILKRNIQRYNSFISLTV
UniProt P21333, whole entry: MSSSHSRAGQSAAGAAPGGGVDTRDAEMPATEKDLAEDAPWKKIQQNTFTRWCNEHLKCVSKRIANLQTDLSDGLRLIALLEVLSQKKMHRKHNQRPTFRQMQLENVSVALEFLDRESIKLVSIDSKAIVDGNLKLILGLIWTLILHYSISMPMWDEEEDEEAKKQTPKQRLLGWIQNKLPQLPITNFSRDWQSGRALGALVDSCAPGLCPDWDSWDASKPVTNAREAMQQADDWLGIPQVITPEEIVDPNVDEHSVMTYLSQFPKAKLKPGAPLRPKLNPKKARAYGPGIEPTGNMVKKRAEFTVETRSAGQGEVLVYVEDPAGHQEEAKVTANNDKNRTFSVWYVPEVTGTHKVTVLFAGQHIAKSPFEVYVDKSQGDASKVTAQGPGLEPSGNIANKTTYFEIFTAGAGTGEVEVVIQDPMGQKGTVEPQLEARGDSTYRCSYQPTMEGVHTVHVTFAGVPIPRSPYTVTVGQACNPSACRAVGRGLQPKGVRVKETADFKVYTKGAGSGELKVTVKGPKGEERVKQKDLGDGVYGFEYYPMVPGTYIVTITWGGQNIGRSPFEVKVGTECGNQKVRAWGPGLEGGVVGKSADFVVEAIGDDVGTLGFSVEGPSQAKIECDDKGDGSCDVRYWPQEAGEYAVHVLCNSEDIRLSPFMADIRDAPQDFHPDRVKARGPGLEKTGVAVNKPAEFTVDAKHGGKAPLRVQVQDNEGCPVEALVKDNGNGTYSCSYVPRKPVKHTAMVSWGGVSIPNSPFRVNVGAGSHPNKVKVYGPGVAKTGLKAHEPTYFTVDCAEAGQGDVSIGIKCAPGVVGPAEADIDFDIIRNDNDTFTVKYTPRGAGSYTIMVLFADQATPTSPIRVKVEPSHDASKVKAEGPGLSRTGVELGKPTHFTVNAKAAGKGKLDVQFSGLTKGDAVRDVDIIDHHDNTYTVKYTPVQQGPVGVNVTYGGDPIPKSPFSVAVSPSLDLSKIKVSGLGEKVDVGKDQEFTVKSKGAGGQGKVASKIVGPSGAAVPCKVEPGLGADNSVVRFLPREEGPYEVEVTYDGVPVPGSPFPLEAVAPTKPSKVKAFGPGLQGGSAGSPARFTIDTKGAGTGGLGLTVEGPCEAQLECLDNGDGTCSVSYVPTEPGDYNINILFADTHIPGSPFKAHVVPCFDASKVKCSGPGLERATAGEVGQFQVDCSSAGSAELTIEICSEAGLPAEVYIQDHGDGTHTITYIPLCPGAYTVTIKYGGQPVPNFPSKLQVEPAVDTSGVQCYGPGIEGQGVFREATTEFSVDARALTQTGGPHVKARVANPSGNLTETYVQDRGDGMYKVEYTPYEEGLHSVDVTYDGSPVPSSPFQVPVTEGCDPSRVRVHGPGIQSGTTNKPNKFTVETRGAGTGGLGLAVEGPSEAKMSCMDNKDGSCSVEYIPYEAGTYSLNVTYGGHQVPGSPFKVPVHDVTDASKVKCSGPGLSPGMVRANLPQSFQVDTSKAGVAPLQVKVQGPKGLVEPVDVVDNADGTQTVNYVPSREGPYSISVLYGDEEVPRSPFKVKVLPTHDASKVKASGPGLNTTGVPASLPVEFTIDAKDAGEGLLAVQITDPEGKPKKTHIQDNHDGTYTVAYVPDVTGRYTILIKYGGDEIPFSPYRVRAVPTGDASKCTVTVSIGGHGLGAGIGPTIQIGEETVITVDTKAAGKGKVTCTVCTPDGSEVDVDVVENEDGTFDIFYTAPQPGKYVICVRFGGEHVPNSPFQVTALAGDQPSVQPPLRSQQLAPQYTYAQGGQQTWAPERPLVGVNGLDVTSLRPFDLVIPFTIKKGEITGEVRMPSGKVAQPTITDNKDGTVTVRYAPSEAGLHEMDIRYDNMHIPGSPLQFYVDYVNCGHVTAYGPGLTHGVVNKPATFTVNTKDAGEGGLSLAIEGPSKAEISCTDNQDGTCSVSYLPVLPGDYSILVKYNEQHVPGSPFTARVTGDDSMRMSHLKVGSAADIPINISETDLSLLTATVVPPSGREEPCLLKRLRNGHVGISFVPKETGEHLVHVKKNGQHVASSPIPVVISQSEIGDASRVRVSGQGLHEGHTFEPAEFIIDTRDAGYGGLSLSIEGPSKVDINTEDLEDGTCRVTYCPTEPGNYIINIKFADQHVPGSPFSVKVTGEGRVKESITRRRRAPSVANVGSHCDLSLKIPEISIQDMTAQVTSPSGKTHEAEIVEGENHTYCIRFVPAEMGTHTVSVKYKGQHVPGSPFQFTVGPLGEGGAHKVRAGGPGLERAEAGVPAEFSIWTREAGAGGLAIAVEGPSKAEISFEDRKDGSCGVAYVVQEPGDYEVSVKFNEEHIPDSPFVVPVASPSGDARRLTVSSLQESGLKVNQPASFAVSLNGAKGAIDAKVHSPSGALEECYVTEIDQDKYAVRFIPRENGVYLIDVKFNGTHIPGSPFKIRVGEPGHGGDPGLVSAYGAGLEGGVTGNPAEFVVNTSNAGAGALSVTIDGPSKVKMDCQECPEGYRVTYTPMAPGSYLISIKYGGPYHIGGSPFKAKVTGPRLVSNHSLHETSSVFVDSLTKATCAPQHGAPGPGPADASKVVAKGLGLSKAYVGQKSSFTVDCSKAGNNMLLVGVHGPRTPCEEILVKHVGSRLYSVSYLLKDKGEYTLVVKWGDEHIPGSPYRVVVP
UniProt P17844: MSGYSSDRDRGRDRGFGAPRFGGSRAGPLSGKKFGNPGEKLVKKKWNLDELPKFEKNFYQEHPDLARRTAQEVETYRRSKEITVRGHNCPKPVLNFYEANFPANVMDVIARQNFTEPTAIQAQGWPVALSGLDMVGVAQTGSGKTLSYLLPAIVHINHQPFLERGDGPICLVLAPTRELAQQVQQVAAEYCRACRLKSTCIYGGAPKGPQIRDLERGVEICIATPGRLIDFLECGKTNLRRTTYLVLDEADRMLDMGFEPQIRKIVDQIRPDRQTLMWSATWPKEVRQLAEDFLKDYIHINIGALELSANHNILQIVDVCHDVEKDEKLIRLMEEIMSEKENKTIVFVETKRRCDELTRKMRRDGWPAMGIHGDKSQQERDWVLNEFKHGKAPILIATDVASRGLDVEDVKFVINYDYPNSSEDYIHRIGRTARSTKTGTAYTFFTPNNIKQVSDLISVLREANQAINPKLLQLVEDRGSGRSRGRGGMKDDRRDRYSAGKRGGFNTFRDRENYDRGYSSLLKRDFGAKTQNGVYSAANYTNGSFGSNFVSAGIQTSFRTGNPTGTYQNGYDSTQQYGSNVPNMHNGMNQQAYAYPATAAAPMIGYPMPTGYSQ

Compound in the test: Nc1ncnc2c1ncn2[C@@H]1O[C@H](COP(=O)(O)OP(=O)(O)OP(=O)(O)O)[C@@H](O)[C@H]1O [adenosine triphosphate]
Briefly: NP40-soluble protein abundance relative to vehicle (solubility fold change) (ratio); higher = more soluble protein in presence of ATP. The settings on record: concentration: 1mM. The method in brief: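 Data come from three independent experiments in which Dounce-homogenised Jurkat crude lysate was treated at eight concentrations from 0.1 to 10 mM. Treatment ran 10 min at room temperature and then 3 min at 37 °C, after which 0.8% NP40 and benzonase were added for 60 min at 4 °C before ultracentrifugation. The supernatant underwent TMT labelling and LC-MS/MS, and vsn-normalised intensities were expressed as fold change against the detergent-processed vehicle in each replicate.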
For the target P30042 (UniProt P0DPI2), the NP40-soluble protein abundance came out at 0.9847 ± 0.0097.
Take M6PR (UniProt P20645): the NP40-soluble protein abundance was 0.938 ± 0.023.
The result for HOXB4 (UniProt P17483) reads 1.03 ± 0.068; that for UniProt P32519 and related entries, 0.948 ± 0.063.
Under ATP6V1B2 (UniProt P21281) stands 1 ± 0.012; under UniProt P32780 and related entries, 1.004 ± 0.0076; under UniProt P31327 and related entries, 1.07 ± 0.044.
The result for UniProt P23396 and related entries reads 0.853 ± 0.038.
For ZKSCAN1 (UniProt P17029), the NP40-soluble protein abundance stood at 0.877 ± 0.056.
UniProt P22314 and related entries: the NP40-soluble protein abundance was found to be 0.983 ± 0.02.
Under ABCD3 (UniProt P28288) stands 1.09 ± 0.14.
The result for UniProt P18433 and related entries reads 1.04 ± 0.093; that for AKT1 (UniProt P31749), 0.986 ± 0.08.
Under UniProt P33981 and related entries stands 1.1 ± 0.043.
For the target UniProt P34897 and related entries, the NP40-soluble protein abundance stood at 0.968 ± 0.051.
In the case of UniProt P31948 and related entries, the NP40-soluble protein abundance was 1.01 ± 0.24.
Under ACO1 (UniProt P21399) stands 1 ± 0.074.
For the target GOT1 (UniProt P17174), the NP40-soluble protein abundance is 0.987 ± 0.063.
The result for IGFBP2 (UniProt P18065) reads 0.969 ± 0.026; that for CBL (UniProt P22681), 1 ± 0.03; that for UniProt P17010 and related entries, 0.977 ± 0.082.
Under UniProt P33316 and related entries stands 0.991 ± 0.044; under RFX1 (UniProt P22670), 0.981 ± 0.057; under UniProt P19793 and related entries, 0.881 ± 0.031.
Regarding UniProt P32019 and related entries, the NP40-soluble protein abundance is 1.02 ± 0.2.
As for TFE3 (UniProt P19532), the NP40-soluble protein abundance came out at 1 ± 0.065.
Under UniProt P18858 and related entries stands 0.9618 ± 0.0083; under NDUFB7 (UniProt P17568), 0.937 ± 0.12.
For GDI1 (UniProt P31150), the NP40-soluble protein abundance was 1.02 ± 0.089.
On to NMT1 (UniProt P30419), for which the NP40-soluble protein abundance was determined as 1.02 ± 0.027.
For HNRNPA2B1 (UniProt P22626), the NP40-soluble protein abundance amounted to 1.14 ± 0.12.
Turning to ERCC2 (UniProt P18074), the NP40-soluble protein abundance amounted to 1.02 ± 0.1.
The result for PRKAR1B (UniProt P31321) reads 1.04 ± 0.083; that for ATP6V1C1 (UniProt P21283), 0.986 ± 0.035.
With “UniProt P21333-2|P21333 and related entries”, the NP40-soluble protein abundance worked out at 0.971 ± 0.031.
DDX5 (UniProt P17844): the NP40-soluble protein abundance was 0.98 ± 0.26.
Take UniProt P17041: the NP40-soluble protein abundance came out at 0.9629 ± 0.00097.
The result for UniProt P21964 and related entries reads 1 ± 0.017.

The values are drawn from the supplement of paper PMC6411743.
